In PubChem BioAssay AID540276 (National Center for Advancing Translational Sciences (NCATS), 2011):
In all, about 300,000 compounds went through this assay and about 5,400 (1.8%) were called active. Inconclusive means that the source gave no clear call. Such entries were picked first, then a sample of the others. The call rests on the fitted dose curve; tested in HEK293 cells. A potency beside an inconclusive call is a rough fit, not a confirmed value.
On the % scale 0 is the no-effect control and ±100 the full control effect; potency means the concentration at half of the fitted maximal effect.

Assay: qHTS for inhibitors of binding or entry into cells for Marburg Virus
Conditions: Marburg virus pseudotyped entry inhibition, cell reporter; activity change, negative = inhibition: at 37.8 µM (top of the series) unless noted
For `O=C(Nc1ncc(Cc2ccc(SC(F)F)cc2)s1)c1ccccc1`, the “activity change, negative = inhibition” value was inactive: -4.05%.
In the case of `CCOC(=O)c1nc(NNC(=O)c2ccc([N+](=O)[O-])cc2)sc1C`, the Potency is reported as active: 8.91 µM.
With `CNCc1ccc(OCc2ccccc2)c(OC)c1` the Potency was inconclusive: 1.83 µM [activator, partial curve, poor fit].
With `COc1ccc(N2CCN(C(=O)CNC(=O)c3cccc(Br)c3)CC2)cc1` the “activity change, negative = inhibition” value was inactive: 0.472% [at 46.1 µM].
In the case of `Cc1cccc(C)c1NC(=S)NCCc1ccc(O)c(O)c1`, the “activity change, negative = inhibition” value is reported as inactive: -7.04%.
In the case of `CCCNC(=O)OC[C@@H]1O[C@H](CCO/N=C(\C)CCC(=O)OC[C@@H]2O[C@H](C#Cc3ccccc3)C=C[C@@H]2Oc2ccc(C)cc2)C=C[C@@H]1Oc1ccc(OC)cc1`, the “activity change, negative = inhibition” value is reported as inactive: -28.6% [at 14.2 µM].
For `Clc1ccccc1Cc1noc(CN2CCN(Cc3ccccn3)CC2)n1`, the “activity change, negative = inhibition” value was inactive: 12.3% [at 46.1 µM].
In the case of `COc1ccc(CC(=O)NC(C)c2nnc(SCC(=O)Nc3nc(C)cs3)n2C)cc1` (centres undefined), the Potency is reported as “inactive”.
For `CCCCc1ccc(NC(=O)C2CCCC2)cc1`, the Potency was inconclusive: 3.98 µM [activator, single point].
For `CC(C)N1CCC(N2CCN(CCCc3ccccc3)CC2CCO)CC1` (centres undefined), the Potency was inconclusive: 3.55 µM [inhibitor, full curve, poor fit].
For `CCN1CCN(c2ccc(S(=O)(=O)N3CCOCC3)cc2NC(=O)c2ccc(F)cc2Cl)CC1`, the Potency was inconclusive: 35.5 µM [inhibitor, single point].
For `O=C(COC(=O)c1cc2ccccc2cc1O)NC(=O)NCc1ccco1`, the “activity change, negative = inhibition” value was inactive: 17.5% [at 14.2 µM].
In the case of `Cc1ccc(-c2nnc(N(C)C(=O)c3ccccn3)s2)cn1`, the “activity change, negative = inhibition” value is reported as inactive: 6.05%.
For `O=C(CCc1ccc(S(=O)(=O)N2CCCCC2)cc1)c1nnc(-c2ccccc2)o1`, the Potency was inconclusive: 3.16 µM [inhibitor, partial curve, poor fit].
In the case of `O=C(N/N=C/C(Br)=C\c1ccccc1)c1ccco1`, the Potency is reported as inconclusive: 2.82 µM [activator, partial curve, poor fit].
In the case of `CCCn1c(C)cc(C(=O)COC(=O)c2nccnc2N)c1C`, the Potency is reported as inconclusive: 7.94 µM [inhibitor, partial curve, poor fit].
In the case of `COc1ccc(N(CC(=O)NN=C2CCN(C)CC2)S(=O)(=O)c2ccc(NC(C)=O)cc2)cc1`, the Potency is reported as inconclusive: 5.62 µM [inhibitor, single point].
With `COc1ccc(N2CCOCC2)c(NC(=O)COc2cccc(C)c2C)c1` the Potency was inconclusive: 35.5 µM [inhibitor, single point].
For `COc1cc(CNc2ccc(CNc3ncn[nH]3)cc2)cc(Cl)c1OCc1ccccc1`, the Potency was inconclusive: 2.24 µM [activator, partial curve].
With `CC1(C)Cc2ccccc2C(NNC(=O)c2ccccc2)=N1` the Potency was inconclusive: 31.6 µM [activator, partial curve, poor fit].
For `O=C(CNc1ccc2c(c1)OCO2)N/N=C\c1cn(Cc2ccccc2)c2ccccc12`, the Potency was inconclusive: 5.01 µM [inhibitor, full curve, poor fit].
With `O=C(c1ccc(Cl)cc1)c1ccc(OCC(=O)N2CCOCC2)cc1` the Potency was inconclusive: 0.58 µM [activator, partial curve, poor fit].
For `C/C(=N/NC(=O)c1cc(-c2ccccc2)nc2c(Cl)cccc12)c1cccnc1`, the “activity change, negative = inhibition” value was inactive: -19.2%.
For `COc1ccc(NC(=O)[C@@H](NC(=O)c2ccccc2)C(C)C)cc1S(=O)(=O)N1CCCCC1`, the Potency was active: 0.112 µM.
With `COc1ccc(C2(O)CCN(CC(=O)Nc3nc(-c4ccccc4)cs3)CC2)cc1` the Potency was inconclusive: 20 µM [inhibitor, single point].
For `N#Cc1ccc(C(c2nnnn2C2CCCC2)N2CCC(Cc3ccccc3)CC2)cc1` (centres undefined), the “activity change, negative = inhibition” value was inactive: -28.1%.
In the case of `CNC(=S)NNC(=O)c1cn(C)nc1C`, the Potency is reported as inconclusive: 8.91 µM [activator, single point].
In the case of `COc1cc(NS(=O)(=O)c2ccc(C)c(C)c2)c(OC)cc1Cl`, the Potency is reported as inconclusive: 25.9 µM [inhibitor, single point].
In the case of `COc1cc(OC)c(NC(=O)CSc2nc3ccncc3[nH]2)cc1Cl`, the Potency is reported as inconclusive: 17.8 µM [inhibitor, single point].
In the case of `CCOc1ccc(C(=O)NC2CCN(S(=O)(=O)c3ccccc3)CC2)cc1`, the Potency is reported as inconclusive: 5.62 µM [inhibitor, single point].
For `Cc1cc(O)c2c(c1)CC1C3CCC4CC(=O)CCC4(C)C3CC(=O)C21C` (centres undefined), the Potency was inconclusive: 20 µM [inhibitor, single point].
In the case of `CCn1nc(C)c(CNC(=O)C2CCC(=O)N(Cc3cccc(F)c3)C2)c1C` (centres undefined), the Potency is reported as inconclusive: 20 µM [activator, single point].
For `O=C(C[n+]1cccc(NC(=O)c2ccccc2)c1)c1ccc(NC(=O)c2ccccc2)cc1`, the “activity change, negative = inhibition” value was inactive: 15.7%.
In the case of `CCCCSc1cc(C)nc(N)n1`, the Potency is reported as inconclusive: 4.47 µM [activator, single point].
In the case of `CCN(CC)CCNC(=O)C(=O)NCC1OCCN1C(=O)c1ccc2c(c1)OCO2` (centres undefined), the “activity change, negative = inhibition” value is reported as inactive: -4.27%.
In the case of `COc1ccccc1-c1nnc(SCC(=O)Nc2ccc(N3CCOCC3)cc2)n1N`, the Potency is reported as inconclusive: 5.62 µM [activator, single point].
For `Cc1nn(-c2ccccc2)c(C)c1/C=N/NC(=O)c1cc(-c2cccc3ccccc23)n[nH]1`, the Potency was inconclusive: 7.94 µM [inhibitor, partial curve, poor fit].
In the case of `Cc1ccc(NC(=S)N(CCN(C)C)Cc2cccs2)cc1C`, the Potency is reported as inconclusive: 11.2 µM [inhibitor, partial curve, poor fit].
With `C=CCn1c(O)c(C(CC)=Nc2ccc(C(=O)O)cc2)c(=O)[nH]c1=O` the “activity change, negative = inhibition” value was inactive: 14.3% [at 46.1 µM].
In the case of `Cc1cccc(NC(=O)CCS(=O)(=O)c2cc(Br)cc3c2N(C(=O)C2CC2)CC3)c1C`, the Potency is reported as inconclusive: 12.6 µM [activator, single point].
In the case of `CCc1ccc(Nc2ccc(C(=O)O)cc2[N+](=O)[O-])cc1`, the Potency is reported as inconclusive: 6.31 µM [inhibitor, single point].
With `Cc1ccc(OCc2ccc(C(=O)N3CCCC3)o2)c([N+](=O)[O-])c1` the “activity change, negative = inhibition” value was inactive: 4.29% [at 46.1 µM].
In the case of `Clc1cccc(OCc2nnc(-c3ccccc3Br)o2)c1`, the “activity change, negative = inhibition” value is reported as inactive: -0.899% [at 46.1 µM].
In the case of `Cc1nc(-c2ccc(S(=O)(=O)Nc3ccccc3C)cc2)co1`, the Potency is reported as inconclusive: 6.31 µM [inhibitor, partial curve, poor fit].
